Data published in publication doi:10.1101/2021.10.08.463712.
Results are given in words; binding and its absence hold for the method and conditions named. In cells and extracts the contact can be indirect. Some entries that bind do so weakly or less than the wild type. Sequences can lack the tags named with a protein.

The chains behind the UniProt entries cited, without tags or fusion partners.
UniProt O22467: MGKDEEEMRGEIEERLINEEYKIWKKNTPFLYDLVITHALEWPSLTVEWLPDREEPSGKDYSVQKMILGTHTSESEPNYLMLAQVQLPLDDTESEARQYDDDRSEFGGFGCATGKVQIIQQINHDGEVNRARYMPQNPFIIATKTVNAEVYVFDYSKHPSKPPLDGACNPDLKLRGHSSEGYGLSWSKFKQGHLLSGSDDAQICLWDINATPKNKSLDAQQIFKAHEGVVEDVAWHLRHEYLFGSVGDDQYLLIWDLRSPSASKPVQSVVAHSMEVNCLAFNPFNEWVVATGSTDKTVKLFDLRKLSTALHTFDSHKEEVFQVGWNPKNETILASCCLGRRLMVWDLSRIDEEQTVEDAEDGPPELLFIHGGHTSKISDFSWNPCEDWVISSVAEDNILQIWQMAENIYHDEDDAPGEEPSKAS

T1: GFP-RZ-1C (Arabidopsis thaliana) (UniProt Q8RWN5)
T1 sequence: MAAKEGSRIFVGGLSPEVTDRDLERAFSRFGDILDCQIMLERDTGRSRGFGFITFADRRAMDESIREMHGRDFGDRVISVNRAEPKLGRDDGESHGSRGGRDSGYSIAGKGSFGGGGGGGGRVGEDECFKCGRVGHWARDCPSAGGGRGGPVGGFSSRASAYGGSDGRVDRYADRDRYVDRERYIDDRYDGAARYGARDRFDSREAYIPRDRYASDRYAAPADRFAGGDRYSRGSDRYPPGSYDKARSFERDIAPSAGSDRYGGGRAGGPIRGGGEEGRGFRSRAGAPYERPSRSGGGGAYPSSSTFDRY


Molecular target: T1, GFP-RZ-1C (Arabidopsis thaliana)
Experiment: co-IP

| binding | Molecule |
| --- | --- |
| binds | MSI1-3×FLAG (from UniProt O22467 1-424) |
| binds | HDA19-3×FLAG (enzyme, UniProt O22446 1-501) MDTGGNSLASGPDGVKRKVCYFYDPEVGNYYYGQGHPMKPHRIRMTHALLAHYGLLQHMQVLKPFPARDRDLCRFHADDYVSFLRSITPETQQDQIRQLKRFNVGEDCPVFDGLYSFCQTYAGGSVGGSVKLNHGLCDIAINWAGGLHHAKKCEASGFCYVNDIVLAILELLKQHERVLYVDIDIHHGDGVEEAFYATDRVMTVSFHKFGDYFPGTGHIQDIGYGSGKYYSLNVPLDDGIDDESYHLLFKPIMGKVMEIFRPGAVVLQCGADSLSGDRLGCFNLSIKGHAECVKFMRSFNVPLLLLGGGGYTIRNVARCWCYETGVALGVEVEDKMPEHEYYEYFGPDYTLHVAPSNMENKNSRQMLEEIRNDLLHNLSKLQHAPSVPFQERPPDTETPEVDEDQEDGDKRWDPDSDMDVDDDRKPIPSRVKREAVEPDTKDKDGLKGIMERGKGCEVEVDESGSTKVTGVNPVGVEEASVKMEEEGTNKGGAEQAFPPKT |
| binds | AL2-3×FLAG (protein, UniProt Q9SRM4 1-246) MAAAAVSSNPRTVEEIFKDYSARRAALLRALTKDVDDFYSQCDPEKENLCLYGHPNESWEVNLPAEEVPPELPEPALGINFARDGMQRKDWLSLVAVHSDCWLLSVSFYFGARLNRNERKRLFSLINDLPTLFDVVTGRKAMKDNKPSSDSGSKSRNGTKRSIDGQTKSSTPKLMEESYEEEEEEDEHGDTLCGSCGGHYTNEEFWICCDVCERWYHGKCVKITPAKAESIKQYKCPPCCAKKGRQ |
